Record: PubChem BioAssay AID686943 (Drosophila RNAi Screening Center, 2013)
Aim: 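Knockdowns that increase or decrease active ERK after insulin receptor stimulation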 (primary screen). System: Drosophila S2R+ haemocyte-like cells expressing YFP-tagged ERK (Rolled). Reagents: long dsRNA against Drosophila genes. Conditions: insulin stimulation versus unstimulated cells; dose and duration not given. Detection: 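Antibody staining for doubly phosphorylated ERK divided by ERK-YFP signal, as plate z-scores, in insulin-treated and untreated cells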. Direction: replicate 1, z-score of dpERK with insulin: higher = more active ERK per ERK-YFP after insulin.
The deposit covers about 23,000 reagents; this is a random part of those with a known target gene and a result. 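Extra replicates exist only for a retested subset of genes; insulin dose and duration not given; both raised and lowered dpERK matter.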 Not all columns of the deposit are shown. Not given: the amount of reagent, the time to read-out.

replicate 1, z-score of dpERK with insulin, by gene knocked down and reagent
Srr (GeneID 41117): DRSC16382 1.21
CG30087 (GeneID 246446): DRSC21677 0.19
ecd (GeneID 38291): DRSC08574 0.83
Sec71 (GeneID 34785): DRSC01893 -0.01
Mmp1 (GeneID 37949): DRSC04493 0.92
SIFa (GeneID 3346202): DRSC04480 0.73
CG4972 (GeneID 34388): DRSC02798 0.42
CtsF (GeneID 40628): DRSC12056 -0.24; DRSC12195 1.03; DRSC12196 -0.13
r (GeneID 32640): DRSC19813 0.17; DRSC19814 0.04
tap (GeneID 39935): DRSC11402 0.1
AANATL7 (GeneID 31236): DRSC18616 -1.09
beat-IIa (GeneID 42086): DRSC14813 0.68; DRSC14814 0.78
shi (GeneID 45928): DRSC20373 -1.26
Tango10 (GeneID 32125): DRSC19807 1.84
gdrd (GeneID 39599): DRSC10020 0.23
CG7906 (GeneID 39575): DRSC10928 -0.17
Pex11c (GeneID 42751): DRSC14677 0.48
l(2)34Fc (GeneID 34838): DRSC01910 0.79
Muc11A (GeneID 32174): DRSC19498 0.17
PVRAP (GeneID 38677): DRSC09966 0.11; DRSC10577 -0.79
CG17637 (GeneID 40275): DRSC11740 -0.1
CG11892 (GeneID 43053): DRSC14428 -0.17
Drsl4 (GeneID 317954): DRSC08034 -0.58
Srrm234 (GeneID 38206): DRSC07955 0.43; DRSC08606 0.03
WASp (GeneID 43402): DRSC15032 -0.14
ctrip (GeneID 40596): DRSC12242 0.81; DRSC12287 -0.94; DRSC22449 -1.42
Syp (GeneID 42460): DRSC13444 0.23; DRSC15286 -0.05
CG8834 (GeneID 36356): DRSC07283 0.05
CG15034 (GeneID 31670): DRSC17966 0.64
Alp7 (GeneID 37538): DRSC04355 -2.72
CG32647 (GeneID 326226): DRSC19690 0.26; DRSC19878 -0.59
CG31468 (GeneID 251937): DRSC13637 0.57
CG5968 (GeneID 34986): DRSC02916 -1.03
Cdc6 (GeneID 38989): DRSC10563 -0.12
CG31051 (GeneID 261634): DRSC15034 2
DIP-gamma (GeneID 43417): DRSC14873 -0.49
Cyp18a1 (GeneID 32858): DRSC20235 1.84
CG32982 (GeneID 34237): DRSC01059 -1.24; DRSC02677 -0.1; DRSC03268 0.49; DRSC03269 -0.26; DRSC21912 0.15
Fsn (GeneID 36460): DRSC06875 0.48
TotA (GeneID 44121): DRSC13448 -0.17
CG9920 (GeneID 41712): DRSC16578 0.78
cGlr1 (GeneID 36744): DRSC06270 0.34
parvin (GeneID 32990): DRSC19468 0.7

Sorted by “replicate 1, z-score of dpERK with insulin” (highest first): some entries from above.
gene knocked down	amplicon	replicate 1, z-score of dpERK with insulin
Mmp1 (GeneID 37949)	DRSC04493	0.92
ecd (GeneID 38291)	DRSC08574	0.83
SIFa (GeneID 3346202)	DRSC04480	0.73
CG4972 (GeneID 34388)	DRSC02798	0.42
Sec71 (GeneID 34785)	DRSC01893	-0.01
CtsF (GeneID 40628)	DRSC12056	-0.24
